Results deposited as PubChem BioAssay AID743454 (Peter MacCallum Cancer Centre, 2014).
This is an unselected part of about 18,000 reagents. 450 of them (2.5%) were called active. 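Single biological run; no consistent viability z cut-off exists, so the class columns, not z-scores, define the calls.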 Reagents against one gene are numbered here.

Screen: 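Search for knock-downs that restore vorinostat killing in resistant colon cancer cells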 (primary screen)
System: human HCT116-VR colon cancer cells, selected for vorinostat resistance
Reagents: siRNA pool against human genes, 40 nM siRNA pool
Duration: vorinostat for 24 h, read-out about 72 h after transfection
Treatment: vorinostat at 2.5 µM final
Detection: 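Two measures, CellTiter-Fluor viability and luminescent caspase 3/7 activity, each as fold change against same-plate mock wells, mean of duplicates, then screen-wide robust z-score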
Reading the numbers: viability robust z-score: higher = more viable cells than screen typical; caspase robust z-score: higher = more caspase 3/7 activity than screen typical
Hit rule: 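a knock-down is a hit when classed RV1 or RV2 for lowered viability, or CA1 or CA2 for caspase activation; those lethal without drug were dropped; hits were retested singly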

Target gene | reagent no. | viability hit class | caspase hit class | viability robust z-score | caspase robust z-score | outcome
PRKCE | 1 | no change | no change | 0.28 | 1.69 | inactive
SCPEP1 | 1 | no change | no change | 1.22 | 0.76 | inactive
TRUB2 | 1 | no change | no change | -0.92 | -0.66 | inactive
TSPAN4 | 1 | no change | no change | -0.97 | 2.8 | inactive
UCK1 | 1 | no change | no change | -1.16 | 1.25 | inactive
OR4F17 | 1 | no change | no change | -0.24 | 0.25 | inactive
NXF1 | 1 | no change | no change | -5.18 | 0.81 | inactive
CARD10 | 1 | no change | no change | -0.24 | -0.84 | inactive
ARHGAP29 | 1 | no change | no change | 2.16 | 0.78 | inactive
TP73 | 1 | no change | no change | 0.89 | -0.58 | inactive
COMMD10 | 1 | no change | no change | -1.03 | 2.34 | inactive
RAMP3 | 1 | no change | no change | 0.24 | -1.04 | inactive
RPL17 | 1 | no change | no change | -0.64 | 2.03 | inactive
TRIM67 | 1 | no change | no change | 1.42 | -0.16 | inactive
KBTBD12 | 1 | no change | no change | 0.7 | 0.19 | inactive
AGK | 1 | no change | no change | 0.12 | -0.35 | inactive
HLA-L | 1 | no change | no change | -2.63 | 0.82 | inactive
NPEPL1 | 1 | RV2 (reduced viability) | no change | -3.25 | -1.23 | active
PEDS1-UBE2V1 | 1 | no change | no change | 1.52 | 0.34 | inactive
MARK3 | 1 | no change | CA2 (caspase activation) | -1.4 | 5.17 | active
AKR1C3 | 1 | no change | no change | -0.24 | 1.7 | inactive
SGSM3 | 1 | no change | no change | 0.5 | 0.1 | inactive
OR51E2 | 1 | no change | no change | 0.31 | 0.08 | inactive
TUBA1C | 1 | no change | no change | -4.04 | 0.57 | inactive
ADRB2 | 1 | no change | no change | 1.34 | -0.88 | inactive
HSD17B6 | 1 | no change | no change | -1.75 | 2.07 | inactive
OPA3 | 1 | no change | no change | 0.65 | 0.04 | inactive
PREP | 1 | no change | no change | -0.77 | -1.19 | inactive
FBXO11 | 1 | no change | no change | 0.24 | 0.48 | inactive
CSE1L | 1 | no change | CA1 (caspase activation) | -2.15 | 5.29 | active
AMY2A | 1 | no change | no change | 0.02 | -0.24 | inactive
SENP7 | 1 | no change | no change | -0.69 | -0.39 | inactive
OR10J3 | 1 | no change | no change | -1.01 | 2.29 | inactive
PROK2 | 1 | no change | no change | 0.76 | -0.06 | inactive
KCNH2 | 1 | no change | no change | -0.57 | 5.11 | inactive
PIK3C2G | 1 | no change | no change | 0.54 | 1.28 | inactive
EFNA1 | 1 | no change | no change | 0.31 | 2.53 | inactive
P2RY14 | 1 | no change | no change | 0.22 | 1.55 | inactive
LARP4 | 1 | no change | no change | 1.21 | -0.22 | inactive
NUP42 | 1 | no change | CA1 (caspase activation) | -0.07 | 5.57 | active
TEX101 | 1 | no change | no change | 1.18 | 0.05 | inactive
RAB14 | 1 | no change | no change | 0.57 | -0.23 | inactive
CDKN1A | 1 | no change | no change | 1.6 | 0.04 | inactive
MAN2B2 | 1 | no change | no change | 1.44 | -1.15 | inactive
LYSMD3 | 1 | no change | no change | -0.58 | 0.82 | inactive
MED14 | 1 | no change | no change | -1.19 | 1.44 | inactive
SENP2 | 1 | no change | no change | -0.7 | 1.57 | inactive
UBFD1 | 1 | no change | no change | -0.3 | -0.12 | inactive
OR51S1 | 1 | no change | no change | -0.48 | 2.04 | inactive
SEBOX | 1 | no change | no change | -0.52 | -1.05 | inactive
ZCCHC13 | 1 | no change | no change | -0.14 | 0.62 | inactive
FGF20 | 1 | no change | no change | -0.54 | 0.21 | inactive
FASTK | 1 | no change | no change | 0.55 | -0.16 | inactive
LOC652859 (retired record) | 1 | no change | no change | -0.48 | 0.81 | inactive
FRG1 | 1 | no change | no change | 1.15 | -0.4 | inactive
ZIK1 | 1 | no change | no change | 1.7 | 0.5 | inactive
OR2T2 | 1 | no change | no change | 0.01 | 0.76 | inactive
RO60 | 1 | no change | no change | -0.02 | 0.53 | inactive
NAA15 | 1 | no change | no change | 0.26 | 0.28 | inactive
IMMP1L | 1 | no change | no change | 0.13 | 2.52 | inactive
BUD23 | 1 | no change | no change | -1.36 | -0.17 | inactive
BCAR1 | 1 | no change | no change | -2.23 | 0.34 | inactive
RRM2 | 1 | no change | no change | -4.27 | 3.46 | inactive
RRM2 | 2 | no change | no change | -0.28 | -0.57 | inactive
SIRPB1 | 1 | no change | no change | -0.78 | -1.09 | inactive
RPH3AL | 1 | no change | no change | 1.04 | 0.38 | inactive
SMURF2 | 1 | no change | CA2 (caspase activation) | -1.94 | 6.31 | active
RCOR3 | 1 | no change | no change | -0.42 | -0.31 | inactive
TFAP4 | 1 | no change | no change | 0.3 | -1.09 | inactive
CCDC88B | 1 | no change | no change | 0.74 | -0.78 | inactive
ERVW-1 | 1 | no change | no change | 0.56 | -0.45 | inactive
TRAF3 | 1 | no change | no change | -1.87 | -0.55 | inactive
MGAT4B | 1 | no change | no change | 1.01 | -0.64 | inactive

An excerpt from above, showing only “caspase robust z-score”.
HLA-L = 0.82
NPEPL1 = -1.23
PEDS1-UBE2V1 = 0.34
MARK3 = 5.17
AKR1C3 = 1.7
SGSM3 = 0.1
OR51E2 = 0.08
